Cell number change and AC50 data for 14 compounds are collected here from PubChem BioAssay AID2685 (National Center for Advancing Translational Sciences (NCATS), 2010).

Some of the results follow. The main result of the screen is listed elsewhere. These columns were measured beside it and carry no call. Compounds called inactive in the main read-out are mostly missing here. Words in brackets tell the shape of the fitted curve; partial curves, single points and poor fits give uncertain potencies.

A short description of the experiment: qHTS Assay for Lipid Storage Modulators in Drosophila S3 Cells.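 On Cell number change: cells counted by Cell Tracker Red CMTPX staining in the red channel.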 The following applies: BODIPY lipid droplet fluorescence, 18-24 h; for cell number change: measured here: cell count max response, cells fed with added oleic acid. An outline of the steps:
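Drosophila S3 cells loaded with oleic acid (400 uM, as added) and compounds at several concentrations; lipid droplets imaged by 488-nm laser-scanning cytometry, 500–530 nm intensity and object ratio to cell channel. Percent activity normalized to 20 uM Triacsin C.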
A general note: In qHTS, concentration-response curves come from the screen itself.

Where [1] appears, read: measured here: cell number channel AC50, cells fed with added oleic acid.
Where [2] appears, read: measured here: lipid fluorescence (Fed channel) AC50, cells fed with added oleic acid.

In the case of `COc1cc(SC)ccc1C(=O)Nc1ccc(S(=O)(=O)N2CCCC2)cc1`, the cell number change was determined as 56.7%. Also, the AC50 (in general, the midpoint of the concentration-response curve, whichever way the signal moves) under setting [1] was 14.6 µM [rising, partial curve, poor fit]. For the same compound, the AC50 under setting [2] is 0.82 µM [rising, single point].
With `CN(C)/C=C1\C(=O)N(c2ccc([N+](=O)[O-])cc2)N=C1c1ccccc1`, the cell number change is -145%. The AC50 under setting [2] is 29.1 µM [falling, single point].
In the case of `COc1ccc(OCCNc2cc(N3CCCCC3)ccc2[N+](=O)[O-])cc1`, the cell number change is 7.49%.
In the case of `O=C1C(NS(=O)(=O)c2ccccc2)=C(N2CCN(c3ccc(F)cc3)CC2)C(=O)c2ccccc21`, the cell number change is -66.8%. Under setting [1], the AC50 is 2.31 µM [falling, full curve]. Moreover, under setting [2], the AC50 was 6.51 µM [falling, partial curve, poor fit].
For `CCN1CCN(c2ccc(NC(=O)c3ccc([N+](=O)[O-])o3)cc2Cl)CC1`, the cell number change was -37.9%. Besides, the AC50 under setting [1] was 13 µM [falling, partial curve, poor fit]. Also, the AC50 under setting [2] is 1.84 µM [falling, single point].
For `NNc1nc(-c2ccccc2)cc(-c2ccc(Br)cc2)n1`, the cell number change is -26.5%. Besides, the AC50 under setting [2] was 0.291 µM [falling, full curve].
For the compound `CC1CCC(N2CCN(S(C)(=O)=O)CC2)CC1` (configuration not stated), the cell number change is -30.8%. Moreover, the AC50 under setting [1] was 36.6 µM [falling, partial curve, poor fit]. The AC50 under setting [2] is 0.731 µM [falling, full curve].
For the compound `Cc1ccoc1C(=O)N1CCCC(CO)(Cc2ccc(F)cc2)C1` (configuration not stated), the cell number change is -1.73%. Moreover, the AC50 under setting [2] is 0.92 µM [falling, partial curve].
As to `Cc1cc(Cl)c(OCCCn2cncn2)c(Br)c1`, the concentration at half-maximal activity (AC50) runs as follows: under setting [1], 1.16 µM [rising, full curve]; under setting [2], 0.92 µM [rising, full curve].
With `CCn1cc(C(=O)N2CCN(Cc3ccc4c(c3)OCO4)CC2)c(=O)c2ccc(C)nc21`, the cell number change was found to be 65%. In addition, under setting [1], the AC50 is 9.2 µM [rising, partial curve]. Under setting [2], the half-maximal activity concentration (AC50) was 6.51 µM [rising, full curve].
For the compound `NC(=O)CC[C@H](NC(=O)OCc1ccccc1)C(=O)OCc1ccc(Cl)cc1`, the cell number change is -26.8%. Also, the AC50 under setting [2] is 4.11 µM [rising, single point].
For `CCS(=O)(=O)Nc1cccc(C2=NN(S(=O)(=O)CC)C(c3ccccc3)C2)c1` (configuration not stated), the cell number change came to 17.3%. For the same compound, the AC50 under setting [2] was 0.00411 µM [rising, full curve, poor fit].
For `O=C(Nc1ccc(C(=O)N2CCCc3ccccc32)cc1)c1cccs1`, the cell number change is -10.2%. For the same compound, under setting [2], the AC50 was 29.1 µM [falling, single point].
In the case of `Cc1oc(-c2cc(Cl)cc(Cl)c2)cc1C(=O)NCCc1ccccc1`, the cell number change was 21.1%. The concentration at half-maximal activity (AC50) under setting [2] was 29.1 µM [rising, single point].
